# Some of the results follow.
# Legend:
# Assay in all cases: glycan array binding signal (z-score within array); higher = stronger binding
# Conditions in all cases: glycan notation: IUPAC condensed, linker removed
# [1] = target: Fuc(a1-2)[GalNAc(b1-3)]Gal
# How it was run: (§1)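 Arrays were curated from the Consortium for Functional Glycomics database, 3228 in total, and kept only where the protein sequence was available. Binding is expressed as a within-array Z-score. This score was averaged across arrays of the same protein sequence at different concentrations or buffers and across linkers, and negative values can be read as non-binding.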
# [2] = target: Fuc(a1-3)GlcNAc
# How it was run: as §1
# [3] = target: Fuc(a1-3)[Gal(b1-4)]Glc6S
# How it was run: as §1
# [4] = target: Fuc(a1-3)[Gal(b1-4)]GlcNAc
# How it was run: as §1
# [5] = target: Fuc(a1-3)[Gal(b1-4)]GlcNAc(b1-2)Man
# How it was run: as §1
# [6] = target: Fuc(a1-3)[Gal(b1-4)]GlcNAc(b1-2)Man(a1-3)[Fuc(a1-3)[Gal(b1-4)]GlcNAc(b1-2)Man(a1-6)]Man(b1-4)GlcNAc(b1-4)GlcNAc
# How it was run: as §1
# [7] = target: Fuc(a1-3)[Gal(b1-4)]GlcNAc(b1-2)Man(a1-3)[Fuc(a1-3)[Gal(b1-4)]GlcNAc(b1-2)Man(a1-6)]Man(b1-4)GlcNAc(b1-4)[Fuc(a1-6)]GlcNAc
# How it was run: as §1
# [8] = target: Fuc(a1-3)[Gal(b1-4)]GlcNAc(b1-3)Gal(b1-3)[Fuc(a1-4)]GlcNAc
# How it was run: as §1
# [9] = target: Fuc(a1-3)[Gal(b1-4)]GlcNAc(b1-3)Gal(b1-4)[Fuc(a1-3)]GlcNAc
# How it was run: as §1
# [10] = target: Fuc(a1-3)[Gal(b1-4)]GlcNAc(b1-3)Gal(b1-4)[Fuc(a1-3)]GlcNAc(b1-3)Gal(b1-4)[Fuc(a1-3)]GlcNAc
# How it was run: as §1
# [11] = target: Fuc(a1-3)[Gal(b1-4)]GlcNAc(b1-3)GalNAc
# How it was run: as §1
# [12] = target: Fuc(a1-3)[Gal(b1-4)]GlcNAc(b1-6)GalNAc
# How it was run: as §1
# [13] = target: Fuc(a1-3)[Gal(b1-4)]GlcNAc(b1-6)[Gal(b1-3)GlcNAc(b1-3)]Gal(b1-4)Glc
# How it was run: as §1
# [14] = target: Fuc(a1-3)[Gal(b1-4)]GlcNAc6S
# How it was run: as §1
# [15] = target: Fuc(a1-3)[Gal3S(b1-4)]Glc
# How it was run: as §1
# [16] = target: Fuc(a1-3)[Gal3S(b1-4)]GlcNAc
# How it was run: as §1
# [17] = target: Fuc(a1-3)[Gal3S(b1-4)]GlcNAc6S
# How it was run: as §1
# [18] = target: Fuc(a1-3)[GalNAc(b1-4)]GlcNAc
# How it was run: as §1
# [19] = target: Fuc(a1-3)[GalNAc(b1-4)]GlcNAc6S
# How it was run: as §1
# [20] = target: Fuc(a1-4)GlcNAc
# How it was run: as §1
# [21] = target: Fuc(b1-3)GlcNAc
# How it was run: as §1
# [22] = target: Gal(a1-2)Gal
# How it was run: as §1
# [23] = target: Gal(a1-3)Gal
# How it was run: as §1
# [24] = target: Gal(a1-3)Gal(b1-3)GlcNAc
# How it was run: as §1
# [25] = target: Gal(a1-3)Gal(b1-3)GlcNAc(b1-2)Man
# How it was run: as §1
# [26] = target: Gal(a1-3)Gal(b1-3)GlcNAc(b1-2)Man(a1-3)[Gal(a1-3)Gal(b1-3)GlcNAc(b1-2)Man(a1-6)]Man(b1-4)GlcNAc(b1-4)GlcNAc
# How it was run: as §1
# [27] = target: Gal(a1-3)Gal(b1-3)GlcNAc(b1-3)GalNAc
# How it was run: as §1
# [28] = target: Gal(a1-3)Gal(b1-3)GlcNAc(b1-6)GalNAc
# How it was run: as §1
# [29] = target: Gal(a1-3)Gal(b1-3)[Fuc(a1-4)]GlcNAc(b1-2)Man(a1-3)[Gal(a1-3)Gal(b1-3)[Fuc(a1-4)]GlcNAc(b1-2)Man(a1-6)]Man(b1-4)GlcNAc(b1-4)GlcNAc
# How it was run: as §1
# [30] = target: Gal(a1-3)Gal(b1-4)Glc
# How it was run: as §1
# [31] = target: Gal(a1-3)Gal(b1-4)GlcNAc
# How it was run: as §1
# [32] = target: Gal(a1-3)Gal(b1-4)GlcNAc(b1-2)Man
# How it was run: as §1
# [33] = target: Gal(a1-3)Gal(b1-4)GlcNAc(b1-2)Man(a1-3)[Gal(a1-3)Gal(b1-4)GlcNAc(b1-2)Man(a1-6)]Man(b1-4)GlcNAc(b1-4)GlcNAc
# How it was run: as §1
# [34] = target: Gal(a1-3)Gal(b1-4)GlcNAc(b1-3)GalNAc
# How it was run: as §1
# [35] = target: Gal(a1-3)Gal(b1-4)GlcNAc(b1-6)GalNAc
# How it was run: as §1
# [36] = target: Gal(a1-3)Gal(b1-4)[Fuc(a1-3)]GlcNAc
# How it was run: as §1
# [37] = target: Gal(a1-3)Gal(b1-4)[Fuc(a1-3)]GlcNAc(b1-2)Man(a1-3)[Gal(a1-3)Gal(b1-4)[Fuc(a1-3)]GlcNAc(b1-2)Man(a1-6)]Man(b1-4)GlcNAc(b1-4)GlcNAc
# How it was run: as §1
# [38] = target: Gal(a1-3)GalNAc
# How it was run: as §1
# [39] = target: Gal(a1-3)[Gal(a1-4)]Gal(b1-4)GlcNAc
# How it was run: as §1
# [40] = target: Gal(a1-4)Gal(b1-3)GlcNAc(b1-2)Man(a1-3)[Gal(a1-4)Gal(b1-3)GlcNAc(b1-2)Man(a1-6)]Man(b1-4)GlcNAc(b1-4)GlcNAc
# How it was run: as §1
# [41] = target: Gal(a1-4)Gal(b1-4)Glc
# How it was run: as §1
# [42] = target: Gal(a1-4)Gal(b1-4)GlcNAc
# How it was run: as §1
# [43] = target: Gal(a1-4)Gal(b1-4)GlcNAc(b1-2)Man(a1-3)[Gal(a1-4)Gal(b1-4)GlcNAc(b1-2)Man(a1-6)]Man(b1-4)GlcNAc(b1-4)GlcNAc
# How it was run: as §1
# [44] = target: Gal(a1-4)Gal(b1-4)GlcNAc(b1-3)Gal(b1-4)Glc
# How it was run: as §1
# [45] = target: Gal(a1-4)GlcNAc
# How it was run: as §1
binder,measurement,setting,value
Epa21 (Candida glabrata) (protein) MGSSHHHHHHSSGLVPRGSHMASTPNIESHPQGCSPVDTSGIKPGLKMDLYRFPITPPGTGCWSWDWLTVTPDFPRSGYWKWPKIAEVDGVVGPLHLDSGHPTCDPLTSVLPHGFNYLQSITTTNFTMVLHGYFVPKQSGKYTFEFKADDALLLNLGAGNAFSCCDYNNSQYNQGEYLAYAIWSKNNQTATLYLEKGIYYPIRVFYHNRCCGAYMDVVYYFNDSPIPNRDFSGLLFSIPDSDSCDANI,glycan array binding signal (z-score),[1],-0.716
same,glycan array binding signal (z-score),[2],-0.655
same,glycan array binding signal (z-score),[3],1.77
same,glycan array binding signal (z-score),[4],-0.96
same,glycan array binding signal (z-score),[5],-0.558
same,glycan array binding signal (z-score),[6],-0.28
same,glycan array binding signal (z-score),[7],0.852
same,glycan array binding signal (z-score),[8],-0.531
same,glycan array binding signal (z-score),[9],0.064
same,glycan array binding signal (z-score),[10],-0.594
same,glycan array binding signal (z-score),[11],0.13
same,glycan array binding signal (z-score),[12],-0.129
same,glycan array binding signal (z-score),[13],0.728
same,glycan array binding signal (z-score),[14],0.366
same,glycan array binding signal (z-score),[15],-0.444
same,glycan array binding signal (z-score),[16],0.384
same,glycan array binding signal (z-score),[17],0.671
same,glycan array binding signal (z-score),[18],0.311
same,glycan array binding signal (z-score),[19],0.119
same,glycan array binding signal (z-score),[20],-0.291
same,glycan array binding signal (z-score),[21],-1.01
same,glycan array binding signal (z-score),[22],-0.581
same,glycan array binding signal (z-score),[23],1.27
same,glycan array binding signal (z-score),[24],0.087
same,glycan array binding signal (z-score),[25],1
same,glycan array binding signal (z-score),[26],0.663
same,glycan array binding signal (z-score),[27],-0.207
same,glycan array binding signal (z-score),[28],0.392
same,glycan array binding signal (z-score),[29],0.725
same,glycan array binding signal (z-score),[30],-0.176
same,glycan array binding signal (z-score),[31],0.097
same,glycan array binding signal (z-score),[32],-0.08
same,glycan array binding signal (z-score),[33],-0.121
same,glycan array binding signal (z-score),[34],1.03
same,glycan array binding signal (z-score),[35],0.619
same,glycan array binding signal (z-score),[36],-0.746
same,glycan array binding signal (z-score),[37],0.829
same,glycan array binding signal (z-score),[38],-0.135
same,glycan array binding signal (z-score),[39],-0.15
same,glycan array binding signal (z-score),[40],0.367
same,glycan array binding signal (z-score),[41],1.49
same,glycan array binding signal (z-score),[42],1.15
same,glycan array binding signal (z-score),[43],-0.322
same,glycan array binding signal (z-score),[44],0.153
same,glycan array binding signal (z-score),[45],4.26

# Some of the entries so far, bar-delimited.
binder | measurement | setting | value
Epa21 (Candida glabrata) (protein) MGSSHHHHHHSSGLVPRGSHMASTPNIESHPQGCSPVDTSGIKPGLKMDLYRFPITPPGTGCWSWDWLTVTPDFPRSGYWKWPKIAEVDGVVGPLHLDSGHPTCDPLTSVLPHGFNYLQSITTTNFTMVLHGYFVPKQSGKYTFEFKADDALLLNLGAGNAFSCCDYNNSQYNQGEYLAYAIWSKNNQTATLYLEKGIYYPIRVFYHNRCCGAYMDVVYYFNDSPIPNRDFSGLLFSIPDSDSCDANI | glycan array binding signal (z-score) | [16] | 0.384
same | glycan array binding signal (z-score) | [33] | -0.121
same | glycan array binding signal (z-score) | [35] | 0.619

# Reference: the supplement of paper PMC8728848
